Results reported in US20240360076A1, “NONIONIC SURFACTANTS” (priority 2023, published 2024).

Assay: Surfactant screen for fluid flow in Zeonor cartridges and compatibility with LAMP

| Compound | outcome of screen for fluid flow and LAMP compatibility |
| --- | --- |
| C[N+](C)(C)CC(=O)O [Betaine] | unsuccessful |
| C[C@H](CCC(=O)NCCC[N+](C)(C)CCCS(=O)(=O)[O-])[C@H]1CC[C@H]2[C@@H]3[C@H](O)C[C@@H]4C[C@H](O)CC[C@]4(C)[C@H]3C[C@H](O)[C@]12C [CHAPS] | unsuccessful |
| CCCCCCCCCCO[C@@H]1O[C@H](CO)[C@@H](O)[C@H](O)[C@H]1O [Decyl-β-D-Glucopyranoside] | unsuccessful |
| CCCCCCCCCCCCO[C@@H]1O[C@H](CO)[C@@H](O[C@H]2O[C@H](CO)[C@@H](O)[C@H](O)[C@H]2O)[C@H](O)[C@H]1O [Dodecyl-β-D-Maltopyranoside] | unsuccessful |
| CCCCCCCCCCCCOP(=O)([O-])OCC[N+](C)(C)C [Fos-choline-12] | unsuccessful |
| CCCCCCCCCCCC[N+](C)(C)[O-] [LDAO] | unsuccessful |
| NC(N)=O [Urea] | unsuccessful |
| COCCOCCOCCOCCOCCOCCOCCOCCOCCOCCOCCOCCOCCOCCOCCOCCOCCOCCOCCOCCOCCOCCOCCOCCOCCOCCOCCOCCOCCOCCOCCOCCOCCOCCOCCOCCO [m-PEG36-alcohol] | unsuccessful |
